# For part of these data: A negative result means that nothing was seen under these conditions. For part of these data: The exact form of at least one protein or probe is not confirmed.
# What was measured:
# [1] = system: MtrA (Orf1029) (Actinoplanes deccanensis YP-1); test: EMSA; conditions: 0.05-0.1 ug MtrA in 10 uL; EMSA in 10 uL mix with 0.025-0.1 ug protein; pH and temperature not given (as described previously); recombinant protein; residues 1-233; protein details: His-tag (pET28a); label: 5'-FAM; probe letters rebuilt from the primers and the genome; part of a longer molecule
# [2] = system: Orf9379 (Actinoplanes deccanensis YP-1); test: EMSA; conditions: EMSA in 10 uL mix with 0.025-0.1 ug protein; pH and temperature not given (as described previously); recombinant protein; residues 1-225; protein details: His-tag (pET28a); label: 5'-FAM; probe letters rebuilt from the primers and the genome; part of a longer molecule
# [3] = system: MtrA (Orf1029) (Actinoplanes deccanensis YP-1); test: DNase I footprinting; conditions: 5 ug MtrA; recombinant protein; residues 1-233; protein details: His-tag (pET28a); label: 5'-FAM; probe letters rebuilt from the primers and the genome; part of a longer molecule
sequence,measurement,setting,value
TCTGCTATCCATCAAGCCAACCACATCCTTGATCGATCGTCGCCACAGGGCATACCGACGTAATGACTATCACCGCTGATCCAGCACGGTGAACCCCTAGTTCTCCTATGCCCGTAGGGGCCACGGATTCCCAGGTCACACGCAGTGGCAACGAATCGCTCAACTCCCCGAAACACATCGGACGCACGACATGTGATATCGACGTCAGTAATTGCCGCCGGCACCGCGTAGCACGCGCCAAGGTGTTCCGCGCCGAGGTGGCTGCACGTCCGCACAGCGGGACGCGGCATCCCACGCTCTGATTGACGATGATCGATCACGCGATCCATTCGTCAGACTGACCAACATCGCTGTCAGTGTGCCAGGGATCACCGCGAGCAACAAGGTTTGGCGCGAGTAGGGCGGAAATGACCCGGCATGCAGGACGAATGCCCGAAGTGTGCGCTGCGTCACACATCGTGGCACCCCTTGCCTCGCAGGGATAGGGGTTAACGGCCGCCGTGCCCGACGTTAGCTTCGATCTGGCCTCGCGCGCCTGAGCGGGCGACGACAGACGACCACGGAGGCACC (double strand) [fadS5R1p],binding result,[1],binds
same,binding result,[2],no binding
same,binding result,[3],binds
